Experiment [1] addresses FLAG-tagged enolase-1 (ENO1), expressed in 293T cells (UniProt P06733). In words: co-IP; 293T cells co-transfected with HA-tagged PAD4 and FLAG-tagged GCA, ENO1, LCP1 or STOM1; Pierce IP Lysis Buffer; anti-FLAG resin or anti-HA agarose; immunoblot. On the technique in general: A western blot detects proteins with antibodies after separation by electrophoresis.
Experiment [2] concerns the target T1, FLAG-tagged plastin-2 (LCP1), expressed in 293T cells (UniProt P13796).
T1 sequence: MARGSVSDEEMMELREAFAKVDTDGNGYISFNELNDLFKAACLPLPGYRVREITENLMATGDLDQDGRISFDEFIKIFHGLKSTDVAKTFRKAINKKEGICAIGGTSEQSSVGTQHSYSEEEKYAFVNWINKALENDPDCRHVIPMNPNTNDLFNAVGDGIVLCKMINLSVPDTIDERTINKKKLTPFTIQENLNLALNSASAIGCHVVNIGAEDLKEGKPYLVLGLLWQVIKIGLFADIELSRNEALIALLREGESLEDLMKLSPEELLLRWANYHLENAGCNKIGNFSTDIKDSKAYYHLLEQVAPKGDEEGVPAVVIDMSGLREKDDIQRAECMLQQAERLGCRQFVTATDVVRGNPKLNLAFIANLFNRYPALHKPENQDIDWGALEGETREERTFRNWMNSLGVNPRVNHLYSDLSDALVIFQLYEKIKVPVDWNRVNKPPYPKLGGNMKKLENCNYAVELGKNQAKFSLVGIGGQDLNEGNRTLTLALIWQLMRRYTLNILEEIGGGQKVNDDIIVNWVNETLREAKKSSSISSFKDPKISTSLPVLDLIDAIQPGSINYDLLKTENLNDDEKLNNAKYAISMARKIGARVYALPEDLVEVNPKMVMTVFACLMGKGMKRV
The experiment is described as above.

The chains behind the UniProt entries cited, without tags or fusion partners.
UniProt P06733: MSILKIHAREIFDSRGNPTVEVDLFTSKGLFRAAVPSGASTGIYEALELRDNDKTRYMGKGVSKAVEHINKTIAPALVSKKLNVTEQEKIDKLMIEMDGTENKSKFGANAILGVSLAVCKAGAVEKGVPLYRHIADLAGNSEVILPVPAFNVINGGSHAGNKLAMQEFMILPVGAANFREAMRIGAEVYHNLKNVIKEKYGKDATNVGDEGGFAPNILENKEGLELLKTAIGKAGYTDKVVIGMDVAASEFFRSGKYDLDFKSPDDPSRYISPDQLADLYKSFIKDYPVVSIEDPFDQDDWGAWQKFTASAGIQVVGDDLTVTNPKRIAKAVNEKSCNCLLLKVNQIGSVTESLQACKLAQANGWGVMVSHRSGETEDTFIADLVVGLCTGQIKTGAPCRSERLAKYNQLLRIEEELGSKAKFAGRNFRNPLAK
UniProt P35579: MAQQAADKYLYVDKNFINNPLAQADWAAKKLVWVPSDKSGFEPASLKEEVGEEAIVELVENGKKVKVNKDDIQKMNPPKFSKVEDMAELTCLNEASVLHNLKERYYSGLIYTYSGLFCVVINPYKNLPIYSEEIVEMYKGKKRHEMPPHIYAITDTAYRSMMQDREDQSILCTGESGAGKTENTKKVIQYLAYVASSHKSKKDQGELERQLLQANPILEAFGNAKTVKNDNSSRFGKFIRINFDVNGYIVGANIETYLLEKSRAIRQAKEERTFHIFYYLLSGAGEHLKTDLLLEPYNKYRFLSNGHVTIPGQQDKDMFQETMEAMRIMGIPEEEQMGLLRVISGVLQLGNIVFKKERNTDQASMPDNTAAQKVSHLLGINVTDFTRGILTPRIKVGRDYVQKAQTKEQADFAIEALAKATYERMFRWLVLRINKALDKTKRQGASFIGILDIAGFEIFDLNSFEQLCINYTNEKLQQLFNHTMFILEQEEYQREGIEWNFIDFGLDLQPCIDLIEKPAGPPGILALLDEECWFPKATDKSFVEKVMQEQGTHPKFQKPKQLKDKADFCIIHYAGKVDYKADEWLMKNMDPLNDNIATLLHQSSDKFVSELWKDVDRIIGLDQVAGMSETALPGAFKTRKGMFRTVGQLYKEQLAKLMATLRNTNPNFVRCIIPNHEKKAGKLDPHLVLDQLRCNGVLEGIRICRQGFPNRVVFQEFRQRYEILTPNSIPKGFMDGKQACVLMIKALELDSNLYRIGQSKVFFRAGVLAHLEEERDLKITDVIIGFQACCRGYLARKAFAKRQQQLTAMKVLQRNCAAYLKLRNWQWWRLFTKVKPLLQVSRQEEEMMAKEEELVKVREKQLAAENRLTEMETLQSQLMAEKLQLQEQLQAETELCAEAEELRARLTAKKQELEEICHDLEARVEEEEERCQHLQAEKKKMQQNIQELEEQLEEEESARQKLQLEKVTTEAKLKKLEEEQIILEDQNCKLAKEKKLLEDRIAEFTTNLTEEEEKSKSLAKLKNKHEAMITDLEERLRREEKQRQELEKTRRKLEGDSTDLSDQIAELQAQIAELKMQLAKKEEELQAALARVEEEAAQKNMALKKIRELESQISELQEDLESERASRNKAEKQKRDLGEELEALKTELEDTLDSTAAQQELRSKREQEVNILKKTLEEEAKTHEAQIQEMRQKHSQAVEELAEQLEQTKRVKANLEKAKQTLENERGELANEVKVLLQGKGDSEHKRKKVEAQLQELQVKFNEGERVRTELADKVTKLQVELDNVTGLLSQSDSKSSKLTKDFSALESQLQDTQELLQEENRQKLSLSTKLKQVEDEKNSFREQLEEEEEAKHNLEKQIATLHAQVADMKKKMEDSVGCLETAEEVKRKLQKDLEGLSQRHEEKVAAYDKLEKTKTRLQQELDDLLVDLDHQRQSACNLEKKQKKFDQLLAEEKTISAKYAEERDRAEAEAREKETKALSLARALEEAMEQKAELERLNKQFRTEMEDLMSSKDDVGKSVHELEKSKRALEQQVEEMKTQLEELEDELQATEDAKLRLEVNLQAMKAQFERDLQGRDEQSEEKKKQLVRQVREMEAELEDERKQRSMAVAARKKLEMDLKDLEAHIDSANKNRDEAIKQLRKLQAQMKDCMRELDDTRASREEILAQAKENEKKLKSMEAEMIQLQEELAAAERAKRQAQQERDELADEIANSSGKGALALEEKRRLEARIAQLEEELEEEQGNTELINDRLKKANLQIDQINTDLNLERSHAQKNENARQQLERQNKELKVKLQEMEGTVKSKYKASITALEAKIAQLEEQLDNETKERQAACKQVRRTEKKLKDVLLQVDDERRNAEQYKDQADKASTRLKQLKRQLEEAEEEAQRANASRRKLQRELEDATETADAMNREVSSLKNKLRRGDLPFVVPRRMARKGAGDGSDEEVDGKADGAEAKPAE
UniProt Q9UM07: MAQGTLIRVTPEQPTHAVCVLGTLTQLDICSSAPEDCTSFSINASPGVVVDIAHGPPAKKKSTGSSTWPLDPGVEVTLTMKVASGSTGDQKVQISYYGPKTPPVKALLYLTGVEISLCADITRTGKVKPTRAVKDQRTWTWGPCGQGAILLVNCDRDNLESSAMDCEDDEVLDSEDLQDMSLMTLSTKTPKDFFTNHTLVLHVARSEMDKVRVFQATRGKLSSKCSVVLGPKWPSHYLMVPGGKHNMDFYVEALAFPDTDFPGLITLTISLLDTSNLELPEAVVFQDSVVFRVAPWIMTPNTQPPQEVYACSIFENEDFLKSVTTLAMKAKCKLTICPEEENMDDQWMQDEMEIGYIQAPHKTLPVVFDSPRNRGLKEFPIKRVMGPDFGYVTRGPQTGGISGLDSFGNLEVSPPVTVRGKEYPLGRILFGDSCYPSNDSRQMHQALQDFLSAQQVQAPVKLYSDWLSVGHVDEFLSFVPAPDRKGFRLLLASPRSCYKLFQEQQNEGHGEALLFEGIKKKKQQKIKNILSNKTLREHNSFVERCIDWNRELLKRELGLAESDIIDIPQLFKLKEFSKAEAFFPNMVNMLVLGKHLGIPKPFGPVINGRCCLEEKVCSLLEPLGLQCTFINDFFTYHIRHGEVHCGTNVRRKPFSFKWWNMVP
UniProt P60660: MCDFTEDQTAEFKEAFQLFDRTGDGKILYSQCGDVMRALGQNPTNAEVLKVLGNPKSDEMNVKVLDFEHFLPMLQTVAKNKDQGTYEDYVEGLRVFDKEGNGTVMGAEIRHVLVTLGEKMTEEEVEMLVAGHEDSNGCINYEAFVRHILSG
UniProt P14598: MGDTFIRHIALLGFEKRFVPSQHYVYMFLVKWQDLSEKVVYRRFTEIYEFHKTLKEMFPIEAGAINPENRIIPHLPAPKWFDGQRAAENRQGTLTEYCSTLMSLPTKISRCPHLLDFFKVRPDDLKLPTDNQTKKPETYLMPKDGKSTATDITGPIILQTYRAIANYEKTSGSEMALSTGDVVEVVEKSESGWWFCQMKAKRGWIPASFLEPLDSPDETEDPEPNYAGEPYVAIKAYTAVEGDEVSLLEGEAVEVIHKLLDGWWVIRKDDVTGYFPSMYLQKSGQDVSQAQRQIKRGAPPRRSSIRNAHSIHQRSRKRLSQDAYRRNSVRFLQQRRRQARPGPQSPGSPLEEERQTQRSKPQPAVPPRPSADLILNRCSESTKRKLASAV

Experiment [3] has as its target T2, FLAG-tagged stomatin (STOM1), expressed in 293T cells (UniProt P27105).
T2 sequence: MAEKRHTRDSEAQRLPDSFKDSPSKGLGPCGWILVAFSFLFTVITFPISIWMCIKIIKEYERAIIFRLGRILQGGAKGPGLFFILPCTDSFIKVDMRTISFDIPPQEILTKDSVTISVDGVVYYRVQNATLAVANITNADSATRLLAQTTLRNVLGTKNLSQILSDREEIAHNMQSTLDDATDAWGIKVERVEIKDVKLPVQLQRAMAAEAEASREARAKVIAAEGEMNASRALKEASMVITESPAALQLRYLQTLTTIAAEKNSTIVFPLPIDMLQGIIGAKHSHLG
Described as above.

Experiment [4] addresses myosin-9, endogenous in THP-1 cells (human (endogenous in THP-1)) (UniProt P35579). In words: co-IP; THP-1 lysate (Pierce IP Lysis Buffer, protease inhibitors, 1 mM EGTA); anti-myosin 9 on protein G beads, 2 h; beads alone and normal rabbit IgG as controls; immunoblot for endogenous PAD4.
The target of experiment [5] is protein arginine deiminase 4 (PAD4), endogenous in neutrophils (human (endogenous in neutrophils)) (UniProt Q9UM07). In words: proximity ligation; Duolink PLA in fixed, permeabilized neutrophils of patients with RA or healthy controls; anti-PAD4 combined with anti-MYH9, anti-GCA, anti-MYL6, anti-NCF1 or anti-STOM; anti-PAD4 alone as negative control.

These are yes or no findings as the source states them, for the method shown. In cells and extracts the contact can be indirect. Some results given as binding are weak or reduced against the parent protein; the word gives no strength. For part of these data: Sequences can lack the tags named with a protein.

Consider “HA-tagged PAD4 (full length), expressed in 293T cells (from UniProt Q9UM07 1-663) (enzyme)”, for which the binding entry in experiment [1], in experiment [2] and in experiment [3] was “binds” throughout.
As for “PAD4, endogenous in THP-1 cells (from UniProt Q9UM07 1-663) (enzyme)”, the binding entry in experiment [4] is “binds”.
On to “myosin-9 (MYH9), endogenous in neutrophils (from UniProt P35579 1-1960)”, for which the binding entry in experiment [5] was “binds”.
On the same count and under the same terms, with “myosin light chain 6 (MYL6), endogenous in neutrophils (from UniProt P60660 1-151)” the entry was “binds”; with “neutrophil cytosolic factor-1 (NCF1), endogenous in neutrophils (from UniProt P14598 1-390)”, “binds”.

B1: grancalcin (GCA), endogenous in neutrophils (protein, UniProt P28676 1-217)
chain: MAYPGYGGGFGNFSIQVPGMQMGQPVPETGPAILLDGYSGPAYSDTYSSAGDSVYTYFSAVAGQDGEVDAEELQRCLTQSGINGTYSPFSLETCRIMIAMLDRDHTGKMGFNAFKELWAALNAWKENFMTVDQDGSGTVEHHELRQAIGLMGYRLSPQTLTTIVKRYSKNGRIFFDDYVACCVKLRALTDFFRKRDHLQQGSANFIYDDFLQGTMAI
Take B1: the binding entry in experiment [5] is on record as “binds”.

B2: stomatin (STOM), endogenous in neutrophils (protein, UniProt P27105 1-288)
chain: MAEKRHTRDSEAQRLPDSFKDSPSKGLGPCGWILVAFSFLFTVITFPISIWMCIKIIKEYERAIIFRLGRILQGGAKGPGLFFILPCTDSFIKVDMRTISFDIPPQEILTKDSVTISVDGVVYYRVQNATLAVANITNADSATRLLAQTTLRNVLGTKNLSQILSDREEIAHNMQSTLDDATDAWGIKVERVEIKDVKLPVQLQRAMAAEAEASREARAKVIAAEGEMNASRALKEASMVITESPAALQLRYLQTLTTIAAEKNSTIVFPLPIDMLQGIIGAKHSHLG
Take B2: in experiment [5], the binding entry is reported as “binds”.

These data come from publication PMC12390935.
